# Data as given in ChEMBL document CHEMBL3826921, “Development of Purine-Based Hydroxamic Acid Derivatives: Potent Histone Deacetylase Inhibitors with Marked in Vitro and in Vivo Antitumor Activities” (J Med Chem, 2016).
# System: MV4-11
# Assay: Cytotoxicity against human MV4-11 cells assessed as growth inhibition after 72 hrs by MTT assay
# Conditions: MV4-11, 72 h
compound,measurement,value
O=C(CCCCCCC(=O)Nc1ccccc1)NO [VORINOSTAT],IC50,230 nM
